Measurements reported in PubChem BioAssay AID504804 (Drosophila RNAi Screening Center, 2011).

Screen: 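dsRNAs that improve Kc cell survival under doxorubicin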 (primary screen)
System: Drosophila Kc cells
Knock-down reagent: long dsRNA against Drosophila genes, 0.5 µg dsRNA per well
Timing: 96 h (48 h knock-down, then 48 h drug)
Challenge: doxorubicin 5 µg/ml for 48 h, added 48 h after dsRNA
Measured: 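Viability measured as cellular ATP by luminescence after 48 h knock-down then 48 h doxorubicin at 5 µg/ml; unnormalised plate counts for each replicate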
Reading the numbers: raw ATP luminescence: higher = more viable cells, protection from doxorubicin
Call rule: 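Active when both duplicate wells lie at least 2 SD above the plate mean and protection is confirmed by rescreening and independent dsRNAs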
The deposit covers about 19,000 reagents; this is an unselected part of those with a known target gene and a result. Over the whole deposit, 47 (0.25%) got an active call. 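Signals are raw, not normalised; exact z-scores behind calls not deposited; actives needed confirmation, so some wells reaching 2 SD are inactive.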 A plus sign joins genes that one reagent is predicted to hit.

| gene | amplicon | SD above plate mean | raw ATP luminescence, replicate 1 | raw ATP luminescence, replicate 2 | call |
| --- | --- | --- | --- | --- | --- |
| BubR1 | DRSC04838 | – | 58897 | 48753 | inactive |
| CG9150 | DRSC03148 | – | 22027 | 36583 | inactive |
| IFT57 | DRSC00720 | – | 25600 | 28430 | inactive |
| CG14933 + CG42486 | DRSC02415 | – | 37567 | 48287 | inactive |
| CG32206 | DRSC09602 | – | 54180 | 73540 | inactive |
| CG32206 | DRSC10094 | – | 71753 | 59613 | inactive |
| CG32206 | DRSC10095 | – | 78610 | 72300 | inactive |
| CG32206 | DRSC10096 | – | 80330 | 75247 | inactive |
| CG32206 | DRSC11080 | – | 75470 | 61200 | inactive |
| kirre | DRSC18785 | – | 57220 | 53800 | inactive |
| CG14419 | DRSC17916 | – | 63300 | 60300 | inactive |
| Prosalpha7 | DRSC07516 | – | 61127 | 45177 | inactive |
| CG11113 | DRSC06039 | – | 46790 | 76423 | inactive |
| mRpL2 | DRSC10896 | – | 79110 | 88657 | inactive |
| Pgam5-2 | DRSC04278 | – | 42010 | 49570 | inactive |
| CG3662 | DRSC00626 | – | 92173 | 80383 | inactive |
| CG8026 | DRSC07055 | – | 85500 | 82247 | inactive |
| CG8026 | DRSC07056 | – | 56867 | 70293 | inactive |
| mav | DRSC17149 | – | 52920 | 25980 | inactive |
| CG31493 | DRSC12583 | – | 54517 | 21357 | inactive |
| sug | DRSC06855 | – | 59817 | 47817 | inactive |
| Dop2R | DRSC20683 | – | 3.70e5 | 3.48e5 | inactive |
| Dop2R | DRSC20686 | – | 3.77e5 | 3.78e5 | inactive |
| Sur | DRSC03447 | – | 80883 | 63540 | inactive |
| CG14839 | DRSC14963 | – | 76470 | 73480 | inactive |
| CG17233 | DRSC10259 | at least 2 SD above plate mean | 47760 | 41210 | inactive |
| CG14631 | DRSC17792 | – | 53380 | 55500 | inactive |
| CG14631 | DRSC17941 | – | 58800 | 54740 | inactive |
| eIF4H1 | DRSC20276 | – | 2.09e5 | 2.16e5 | inactive |
| CG5510 | DRSC15823 | – | 63120 | 77450 | inactive |
| CG34367 | DRSC02238 | – | 38830 | 86497 | inactive |
| CG34367 | DRSC02850 | – | 42200 | 93210 | inactive |
| CG14325 | DRSC14804 | – | 23190 | 26880 | inactive |
| Cyp4ac1 | DRSC03302 | – | 1.22e5 | 83647 | inactive |
| Gbp3 | DRSC15206 | – | 67150 | 78300 | inactive |
| shf | DRSC18283 | – | 43460 | 47260 | inactive |
| DppIII | DRSC16241 | – | 56787 | 64250 | inactive |
| cni | DRSC03512 | – | 48807 | 70920 | inactive |
| CG7381 | DRSC16238 | – | 50197 | 30603 | inactive |
| mthl6 | DRSC10234 | – | 84243 | 83660 | inactive |
| stum | DRSC04268 | – | 56863 | 63543 | inactive |
| stum | DRSC04270 | – | 55340 | 52350 | inactive |
| CG13306 | DRSC09976 | – | 93297 | 1.01e5 | inactive |
| nemy | DRSC05357 | – | 1.20e5 | 1.07e5 | inactive |
| nemy | DRSC07262 | – | 95863 | 59330 | inactive |
| Fnta | DRSC00557 | – | 1.11e5 | 87880 | inactive |
| CG42724 | DRSC12567 | – | 52480 | 29623 | inactive |
| Wwox | DRSC03030 | – | 1.27e5 | 83967 | inactive |
| Ogdh | DRSC09854 | – | 25323 | 26017 | inactive |
| Ogdh | DRSC09855 | – | 54317 | 43660 | inactive |
| Rh7 | DRSC10529 | – | 32513 | 44617 | inactive |
| Jabba | DRSC06521 | – | 72037 | 60047 | inactive |
| Muc4B | DRSC18062 | – | 54730 | 70130 | inactive |
| Muc4B | DRSC18063 | – | 48950 | 65580 | inactive |
| dpp | DRSC00118 | – | 3.27e5 | 3.25e5 | inactive |
| dpp | DRSC00121 | – | 3.09e5 | 3.11e5 | inactive |
| CG6770 | DRSC02992 | – | 75780 | 74420 | inactive |
| Obp58b | DRSC04161 | – | 48610 | 51417 | inactive |
| CG8565 | DRSC20112 | – | 3.63e5 | 3.21e5 | inactive |
| Papst2 | DRSC10924 | – | 23540 | 24617 | inactive |
| CanA-14F | DRSC20211 | – | 2.52e5 | 2.37e5 | inactive |
| CG11342 | DRSC08175 | – | 62143 | 73680 | inactive |
| Or92a | DRSC16771 | – | 47170 | 60460 | inactive |
| CG14354 | DRSC14817 | – | 51510 | 44970 | inactive |
| CG14125 | DRSC10129 | – | 88013 | 1.68e5 | inactive |
| Cpr67Fb | DRSC10314 | – | 85513 | 77800 | inactive |
| CG31199 | DRSC15284 | – | 48843 | 42933 | inactive |
| RpS3A | DRSC17168 | – | 25400 | 23220 | inactive |
| upd2 | DRSC19969 | – | 3.63e5 | 2.82e5 | inactive |
| JMJD4 | DRSC03025 | – | 96580 | 93827 | inactive |
| Ccm3 | DRSC15711 | – | 90640 | 61390 | inactive |
| CG11529 | DRSC09839 | – | 73930 | 64663 | inactive |
| CG6171 | DRSC15982 | – | 45193 | 27820 | inactive |
| kkv | DRSC12315 | – | 67753 | 29767 | inactive |
| CG10418 | DRSC09720 | – | 66700 | 54777 | inactive |
| Nepl15 | DRSC15630 | – | 41013 | 41567 | inactive |
| Mal-A7 | DRSC06077 | – | 29020 | 71910 | inactive |
| CG13361 | DRSC17896 | – | 61990 | 73590 | inactive |
| CG5386 | DRSC15788 | – | 37180 | 36620 | inactive |
| Cpr92F | DRSC15819 | – | 57170 | 73810 | inactive |
| Nha1 | DRSC02109 | – | 1.25e5 | 81880 | inactive |
| Spindly | DRSC00430 | – | 34607 | 39673 | inactive |
| SMSr | DRSC10998 | – | 37370 | 46283 | inactive |
| SMSr | DRSC10999 | – | 85963 | 90220 | inactive |
| CG32628 (retired record) | DRSC19405 | – | 2.59e5 | 2.22e5 | inactive |
| CG30419 | DRSC04208 | – | 77080 | 59813 | inactive |
| CG30419 | DRSC04209 | – | 58313 | 50453 | inactive |
| TBC1d7 + mRpS24 | DRSC14611 | – | 87980 | 76380 | inactive |
| spen | DRSC00839 | – | 93190 | 78700 | inactive |
| CG2209 | DRSC19843 | – | 3.60e5 | 3.65e5 | inactive |
| Acsf2 | DRSC02172 | – | 28827 | 31517 | inactive |
| Cpsf160 | DRSC05968 | – | 60663 | 54290 | inactive |
| mAChR-C | DRSC17890 | – | 38840 | 41760 | inactive |
| Fcp1 | DRSC04121 | – | 53760 | 64920 | inactive |
| CG5355 | DRSC02844 | – | 88410 | 70770 | inactive |
| Rab4 + CG42239 | DRSC05667 | – | 1.25e5 | 84380 | inactive |
| peo | DRSC05995 | – | 71533 | 62437 | inactive |
| ImpL1 | DRSC11197 | – | 38710 | 41217 | inactive |
| Elba2 | DRSC00731 | – | 96813 | 70420 | inactive |
| CG42566 | DRSC03949 | – | 69353 | 53697 | inactive |
| CG8292 | DRSC03082 | – | 41257 | 86493 | inactive |
| GstT2 | DRSC06244 | – | 42033 | 77183 | inactive |
| Serinc | DRSC11296 | – | 23400 | 19273 | inactive |
| Cdk1 | DRSC03504 | – | 1.06e5 | 80137 | inactive |
| Gmap | DRSC20057 | – | 2.82e5 | 2.37e5 | inactive |
| CCDC53 | DRSC03056 | – | 39183 | 85767 | inactive |
| CG17109 | DRSC15172 | – | 87990 | 77260 | inactive |

12 entries already listed, ordered by “raw ATP luminescence, replicate 1”, low to high.
| gene | amplicon | SD above plate mean | raw ATP luminescence, replicate 1 | raw ATP luminescence, replicate 2 | call |
| --- | --- | --- | --- | --- | --- |
| shf | DRSC18283 | – | 43460 | 47260 | inactive |
| cni | DRSC03512 | – | 48807 | 70920 | inactive |
| CG7381 | DRSC16238 | – | 50197 | 30603 | inactive |
| stum | DRSC04270 | – | 55340 | 52350 | inactive |
| DppIII | DRSC16241 | – | 56787 | 64250 | inactive |
| stum | DRSC04268 | – | 56863 | 63543 | inactive |
| Gbp3 | DRSC15206 | – | 67150 | 78300 | inactive |
| mthl6 | DRSC10234 | – | 84243 | 83660 | inactive |
| CG13306 | DRSC09976 | – | 93297 | 1.01e5 | inactive |
| nemy | DRSC07262 | – | 95863 | 59330 | inactive |
| Fnta | DRSC00557 | – | 1.11e5 | 87880 | inactive |
| nemy | DRSC05357 | – | 1.20e5 | 1.07e5 | inactive |
